Data reported in PMC6513524, “Production and characterization of novel ssRNA bacteriophage virus-like particles from metagenomic sequencing data” (Journal of Nanobiotechnology, 2019).
Results are given in words; binding and its absence hold for the method and conditions named. Some binding calls cover weakened binding; strength is not graded here.

Molecular target: PRR1 coat protein (bacteriophage PRR1) (UniProt P03616)
Assay: SEC + other: negative-stain electron microscopy; crude E. coli lysate separated by gel filtration (Sepharose 4 FF, PBS); fractions in the size range of VLPs stained with 1% uranyl acetate and examined by TEM; self-assembly of the coat protein into virus-like particles

B1: PRR1 coat protein (protein, UniProt P03616 1-131)
chain: AQLQNLVLKDREATPNDHTFVPRDIRDNVGEVVESTGVPIGESRFTISLRKTSNGRYKSTLKLVVPVVQSQTVNGIVTPVVVRTSYVTVDFDYDARSTTKERNNFVGMIADALKADLMLVHDTIVNLQGVY
For B1, the binding was “binds”.
